Screening data, single-dose tests

Measurements from “University of Dundee, Small-Polar-MMV Screening Library” (2021), ChEMBL document CHEMBL3988442.

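Growth of Mycobacterium tuberculosis over 3 days (7H9 medium with glucose and tyloxapol); the read-out is not stated. Concentration: 50 µM. Higher reads as more growth inhibition (inferred: compounds with an IC50 in retests scored well above the rest). Of about 69,000 compounds tested this way, about 760 (1.1%) reached 50% or more in at least one test.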

Results are given as percent effect. The record does not define 0% and 100%; most values in the screen are far below 50% and negative numbers occur (in some assays of this library far below -100). Compounds were drawn at random from those tested, without regard to their results. Two or more numbers in one place are separate tests of the same structure; such repeats can differ widely.

compound,effect
Cl.NC(=O)c1ccc(C2CCCNC2)nc1 (configuration not stated),-7.212%
CCN1CCC(NC(=O)CN2CCCC2Cn2cncn2)CC1 (configuration not stated),-22.48%
Cc1ccnc(CC(C)N(C)Cc2ccc3c(c2)OCCO3)c1 (configuration not stated),14.89%
Cc1csc2nc3n(c(=O)c12)CCN(C(=O)c1ccncc1)CC3,25.39%
COCCN(Cc1nc2c(cnn2C)c(=O)[nH]1)C(C)COC (configuration not stated),-32.35%
CCOCC1COCCC12CCN(C(=O)CS(C)(=O)=O)CC2 (configuration not stated),-14.37% and -4.514%
CS(=O)(=O)c1cc(Cl)cnc1C1CCCN(C(=O)C2CCOCC2)C1 (configuration not stated),4.007%
O=C(CCc1ccsc1)N1CCC(N2CCNC2=O)CC1,13.53%
CC(NC(N)=O)C(=O)Nc1ccc(OCc2cccc(F)c2)c(F)c1 (configuration not stated),34.83%
COc1c(C2CCCN2CC(=O)N2CCCCC2)c(C)nn1C (configuration not stated),-21.97%
CCCc1noc(C(C)N2CCN(CCn3ccccc3=O)CC2)n1 (configuration not stated),-20.46%
O=C(NC1(c2nnn(CCO)n2)CCCC1)c1ccccc1,23.89%
CSC1(CNC(=O)N(C)Cc2ccc(C)s2)CCOCC1,0.3604% and -50.25%
O=C(O)C(F)(F)F.[H][C@@]12CN(C(=O)C3CCOCC3)C[C@@]1([H])N(Cc1ccncc1)C(=O)CO2,-25.7%
O=C(O)C(F)(F)F.[H][C@@]12COC[C@H](C(=O)N3CCOCC3)[C@]1([H])CN(C1CCCCC1)C2,-27.55%
COc1cccc(-n2c(SCC(=O)O)nnc2-c2cn[nH]c2)c1,-23.18%
N#CC1(NC(=O)CN2CCc3c(ncn3C3CC3)C2)CCCC1,0.3206% and -19.26%
O=C(O)C(F)(F)F.[H][C@@]12CN(C(=O)c3cnoc3C)C[C@]1([H])C(=O)N(Cc1cccc(C)n1)C2,2.76%
CCCS(=O)(=O)N1CCN(CC(F)(F)F)CC1,-8.867%
[H][C@@]12CS(=O)(=O)C[C@]1([H])N(Cc1ncc[nH]1)CCN2CC=C(C)C,0.8997%
CCC1CN(C(=O)c2ccccc2N2CCOCC2)CCN1C(C)C (configuration not stated),-5.983% and -0.2391%
O=C(CCNC(=O)c1ccoc1)Nc1cccc(F)c1,-13.03%
CC(=O)N1CCN(C(=O)NCc2csc(Br)c2)CC1,15.28%
Cc1oncc1C(=O)N1CCC2(CCN(Cc3ccccn3)C2=O)C1 (configuration not stated),-13.05%
COc1ccc(C(=O)N2CCC(Nc3ccc(C)nn3)CC2)c(F)c1,-12.53%
CC(=O)NCCC(=O)NC1(c2ccc(Cl)c(Cl)c2)CC1,7.963% and 2.545%
CCCNC(=O)C(C)Nc1ccc(OCC)cc1 (configuration not stated),2.509%
c1ncc2c(n1)CN(Cc1nc(-c3ccoc3)no1)CC2,10.97%
COc1ccc(CN(C)c2ccc(-c3nccn3C)nn2)cc1OC,-3.154%
Cc1nc(CN2CCOC(CN(C)c3cccnn3)C2)cs1 (configuration not stated),14.12%
O=C(O)C(F)(F)F.O=C(O)C(F)(F)F.OCCN1CC2(CCN(CC3CC3)CC2)c2ccccc21,2.581% and 13.28%
O=C(O)C(F)(F)F.O=C(O)C(F)(F)F.[H][C@@]12COC[C@]1(COc1ccccn1)CN(Cc1ccoc1)C2,10.11%
CCCn1ncc(C(=O)NCCc2[nH]nc3c2CCCC3)c1C,3.256% and -25.42%
Cn1nccc1CCC(=O)N1CCCC(c2cnccn2)C1 (configuration not stated),-0.002821%
O=C(NCc1ccc2c(c1)OCO2)[C@@H]1C=CCN1c1ncccn1,31.26%
CCN(Cc1cnn(CC)c1)Cc1c(Cl)cncc1Cl,1.62%
COCCC(=O)N(Cc1cccnc1)CC1CCN(C2CCCC2)CC1,11.94%
Cc1cccc2c1C(=O)NC1(CCOCC1)N2,-11.39%
NCCn1cc(C(=O)N2CCCCCC2c2cccc(F)c2)nn1 (configuration not stated),-1.099% and -12.42%
CN(C)C(=O)CNC(=O)c1cc2c(s1)CCN2S(C)(=O)=O,-20.36%
Cn1cccc1C(CNC(=O)c1ccc(F)cc1F)N1CCCCCC1 (configuration not stated),-10.22%
[H][C@@]12CCCO[C@]1([H])[C@H](NS(C)(=O)=O)CN2C(=O)c1cnccn1,9.635%
Cc1nc(C(NC(=O)C2CCCC2)c2ccccc2F)no1 (configuration not stated),-13.45%
Cc1cccc(NC(=O)c2sc(C)nc2C)n1,15.08%
COc1ccc(CC(=O)N2CCCCC2Cn2cccn2)cc1 (configuration not stated),21.5%
CN(C)S(=O)(=O)Nc1ccc(-n2nncc2C(F)(F)F)cc1,-11.96% and -4.994%
O=C(O)C(F)(F)F.O=C(O)C(F)(F)F.[H][C@]12CCN(Cc3cccc(C#N)c3)C[C@@]1([H])[C@H](CN1CCCC1)OC2,-9.376% and -30.17%
CCc1ccc(C(=O)N2CCC(c3nncn3CC)CC2)s1,13.28% and -0.8366%
O=C(Nc1cccc(CN2CCOC2=O)c1)N1CCOCC1,-8.902% and -25.15%
CN(C)[C@@H]1CN(Cc2cccnc2)C[C@H]1c1cn(C)c2ccccc12.Cl,15.22%
CCN1CC(O)CN(C(=O)c2cccc(C(F)(F)F)c2)CC1=O (configuration not stated),11.58%
CC(C)c1ccn(C2(C(=O)O)CCN(c3ccncc3F)CC2)n1,-11.24%
CC(NC(=O)c1ccoc1)C(=O)N(C)Cc1cccc(C(F)(F)F)c1 (configuration not stated),-47.96% and -6.12%
Cc1noc(CN(Cc2cccs2)C2CCS(=O)(=O)C2)n1 (configuration not stated),-8.871%
Cn1ccc(C(=O)NC2CCC23CCN(C(=O)N2CCCC2)CC3)c1 (configuration not stated),12.98%
Cc1nc(CN2C(=O)COC3(CCN(Cc4ccsc4)CC3)C2C)cs1.O=C(O)C(F)(F)F (configuration not stated),-18.78%
CC(CC(=O)NS(=O)(=O)c1ccc2c(c1)OCCO2)c1ccc(F)cc1 (configuration not stated),-4.006%
Cc1ccc(CNC(=O)N(Cc2ccccc2F)C2CC2)cn1,5.687%
OC(CN1CCN(CCOCC(F)(F)F)CC1)c1ccccc1 (configuration not stated),0.4253% and -9.79%
Cc1cc(CNc2ccc(C(=O)N3CCc4ccccc43)cn2)on1,26.3%
CNS(=O)(=O)CC(=O)NC(C)Cc1ccc(Br)cc1 (configuration not stated),-5.867%
Cn1ccc(C(=O)N2CCCC2c2cc(CO)[nH]n2)n1 (configuration not stated),-7.553%
COCC(=O)N1CCOCC2(CCN(Cc3cccs3)C2)C1.O=C(O)C(F)(F)F (configuration not stated),11.72%
Cc1ccnc(NC(=O)c2c(C)oc(C)c2C)c1,-4.499% and 2.284%
COCC(=O)N1CCN(c2ncnc3cccc(F)c23)CC1,-36.64% and -5.036%
CN(Cc1cnc(N)nc1)C(=O)c1coc(COc2cccc(F)c2)n1,-1.776%
FC(F)(F)c1cccc(CNc2nccc(C(F)(F)F)n2)c1,22.48%
O=C1COC2(CCN(Cc3ccncc3)CC2)CN1CC1CC1,-4.268% and -7.823%
O=C(O)C(F)(F)F.[H][C@@]12CN(CC3CC3)C[C@@]1([H])N(Cc1cccc(F)c1)C(=O)CO2,8.082%
O=C(CN1CCCC1Cn1cccn1)NC1CCOCC1 (configuration not stated),-11.19%
CCOCCN1CCN(Cc2nnc(-c3occc3C)o2)CC1CC (configuration not stated),29.12%
Cc1nc(CCCNC(=O)C2CC(=O)N(C3CCCC3)C2)sc1C (configuration not stated),-1.463%
CC(=O)N1CCN(c2cc(-c3ccccc3)nc3c(C)c(C)nn23)CC1,27.54%
CC(C)(C)n1ncc2c(=O)n(CC(=O)NCc3ccco3)cnc21,1.899% and -12.04%
Cc1c(Cl)c(C(F)(F)F)nn1C(C)C(=O)NN1CCN(C)CC1 (configuration not stated),31%
COc1cccc(C(O)C(=O)N(C)CCc2ccccn2)c1 (configuration not stated),5.594%
COCc1ccccc1CNc1cc(N2CCCC2CO)ncn1 (configuration not stated),-13.41%
N#Cc1cccc(Oc2ccc(CN3CCCC3)cc2Cl)n1,-13.9%
c1cc(CN2CCc3c(CN4CCCC4)n[nH]c3C2)ccn1,-3.47% and -23.12%
CNC(=O)CN1CCC2(CC1)C[C@@H](O)[C@H](c1ccccc1)NC2=O,6.242%
COc1cc(C)c(CNC(C)c2csc(C3CC3)n2)cc1OC (configuration not stated),4.259% and 17.76%
O=C(CN1CCC(c2ccnn2CCO)CC1)NCC1CC1,14.91%
CC(C)NC(=O)c1cc(-c2ccc(S(C)(=O)=O)cc2)c2cnn(C)c2n1,5.075%
COCC(=O)N1CCN(Cc2cccnc2)c2ncccc2C1.O=C(O)C(F)(F)F.O=C(O)C(F)(F)F,-14.99%
Cc1cc(C2CCCN2C(=O)COc2ccc(CC#N)cc2)no1 (configuration not stated),-14.36%
Nc1cnc(-c2cccc3c2CCNC3)cn1,-11.64%
COCC(C)N1CCN(CCc2ccc3c(c2)CCO3)CC1 (configuration not stated),1.212% and 5.242%
COc1ccc(-n2cc(CNC(=O)c3cscn3)nn2)cc1,17.58% and -2.622%

The first 11 entries again:

{"compound": "Cl.NC(=O)c1ccc(C2CCCNC2)nc1", "stereo": "configuration not stated", "effect": -7.212}
{"compound": "CCN1CCC(NC(=O)CN2CCCC2Cn2cncn2)CC1", "stereo": "configuration not stated", "effect": -22.48}
{"compound": "Cc1ccnc(CC(C)N(C)Cc2ccc3c(c2)OCCO3)c1", "stereo": "configuration not stated", "effect": 14.89}
{"compound": "Cc1csc2nc3n(c(=O)c12)CCN(C(=O)c1ccncc1)CC3", "effect": 25.39}
{"compound": "COCCN(Cc1nc2c(cnn2C)c(=O)[nH]1)C(C)COC", "stereo": "configuration not stated", "effect": -32.35}
{"compound": "CCOCC1COCCC12CCN(C(=O)CS(C)(=O)=O)CC2", "stereo": "configuration not stated", "effect": "-14.37 and -4.514"}
{"compound": "CS(=O)(=O)c1cc(Cl)cnc1C1CCCN(C(=O)C2CCOCC2)C1", "stereo": "configuration not stated", "effect": 4.007}
{"compound": "O=C(CCc1ccsc1)N1CCC(N2CCNC2=O)CC1", "effect": 13.53}
{"compound": "CC(NC(N)=O)C(=O)Nc1ccc(OCc2cccc(F)c2)c(F)c1", "stereo": "configuration not stated", "effect": 34.83}
{"compound": "COc1c(C2CCCN2CC(=O)N2CCCCC2)c(C)nn1C", "stereo": "configuration not stated", "effect": -21.97}
{"compound": "CCCc1noc(C(C)N2CCN(CCn3ccccc3=O)CC2)n1", "stereo": "configuration not stated", "effect": -20.46}